Patent publication US12202868B1 (KING SAUD UNIVERSITY, priority 2024, dated 2025)

Assay: peptide made by a vendor (Fmoc solid-phase peptide synthesis)
Conditions: whole synthesis, RP-HPLC, HCl salt

^1LPSTGEKDTA^10VFRNGGFFRK^20SKEK^24-S5-^26GKE^28-S5-KRIV^33
final HPLC purity: >95%
